# Experimental data taken from the supplement of paper PMC3682954.
# Where a name gives a salt, the structure may show the parent alone. ± gives the standard deviation of the averaged measurements. The list shows a part of the results. Repeats are few or missing, and single values can be far off.
# System: RAW 264.7
# Experiment: cell viability (MTT) relative to vehicle control; higher = more viable cells
# Conditions: stimulus: HMGB1 5 ug/ml, 18 h
# [1] = compound concentration: 1 ug/ml
SMILES,cell viability (compound concentration: 3 uM) [%],cell viability [1] [%]
CC(C)(Oc1ccc(C2CC2(Cl)Cl)cc1)C(=O)O (centres undefined) [Ciprofibrate],97.7 ± 10,
C=CCN1CCCC1CNC(=O)c1cc2nn[nH]c2cc1OC (centres undefined) [Alizapride HCl],117,
"CCCc1cc(=O)oc2cc(O)cc(O)c12 [5,7-Dihydroxy-4-propylcoumarin]",,105
CC1=C(C(=O)O)N2C(=O)[C@@H](NC(=O)[C@H](N)c3ccc(O)cc3)[C@H]2SC1 [Cefadroxil],105,
CC1=C(C(=O)O)N2C(=O)[C@@H](NC(=O)[C@H](N)c3ccc(O)cc3)[C@H]2SC1,110,
O=C(O)CCC/C=C\C[C@@H]1[C@@H](/C=C/[C@H](O)C2Cc3ccccc3C2)[C@@H](F)C[C@@H]1O,93.8,
N[C@@H](CCC(=O)N[C@@H](CSN=O)C(=O)NCC(=O)O)C(=O)O [S-Nitrosoglutathione],110,
Cc1cn([C@H]2C[C@H](O)[C@@H](CO)O2)c(=O)[nH]c1=O [Thymidine],,95.5
CC(CCc1ccc(O)cc1)NCCc1ccc(O)c(O)c1 (centres undefined),107,
CC(CCc1ccc(O)cc1)NCCc1ccc(O)c(O)c1 (centres undefined) [Dobutamine],96.1,
CC(CCc1ccc(O)cc1)NCCc1ccc(O)c(O)c1 (centres undefined) [Dobutamine hydrochloride],99.6 ± 11,
CC1CCN(CCCC(=O)c2ccc(F)cc2)CC1 [Metylperon],105,
Nc1ccc(S(N)(=O)=O)cc1 [Sulfanilamide],117,
Nc1ccc(S(N)(=O)=O)cc1,97.1,
CCN1CCC[C@H]1CNC(=O)c1cc(S(N)(=O)=O)ccc1OC [Sulpiride S (-)],116,
CCN1CCC[C@H]1CNC(=O)c1cc(S(N)(=O)=O)ccc1OC,92.4,
O=c1cc(O)cc(/C=C/c2ccc(O)c(O)c2)o1 [Hispidin],108,
CCOc1nc2cccc(C(=O)OC(C)OC(=O)OC3CCCCC3)c2n1Cc1ccc(-c2ccccc2-c2nn[nH]n2)cc1 (centres undefined),103,
O=c1[nH]c(=O)n([C@H]2C[C@H](O)[C@@H](CO)O2)cc1/C=C/Br [(E)-5-(2-Bromovinyl)-2'-deoxyuridine],103,86.1
CC[C@]12CCCN3CCc4c(n(c5ccccc45)[C@@](O)(C(=O)OC)C1)[C@@H]32 [Vincamine],98.2,86.2
CC[C@]12CCCN3CCc4c(n(c5ccccc45)[C@@](O)(C(=O)OC)C1)[C@@H]32,98.2,

SMILES,cell viability (compound concentration: 3 uM) [%],cell viability [1] [%]
COc1ccc(CCN(C)CCCC(C#N)(c2ccc(OC)c(OC)c2)C(C)C)cc1OC (racemic) [(±)-Verapamil hydrochloride],109,
CCC(C)(C)c1ccc(CC(C)CN2C[C@@H](C)O[C@@H](C)C2)cc1 (some centres undefined) [Amorolfine],107,
CC(C)N(CCC(=O)c1ccc2ccccc2c1)Cc1ccccc1,106,
O=C(O)c1cc(=O)c2c(OCC(O)COc3cccc4oc(C(=O)O)cc(=O)c34)cccc2o1,94.5,
O=C(O)c1cc(=O)c2c(OCC(O)COc3cccc4oc(C(=O)O)cc(=O)c34)cccc2o1 [Cromolyn disodium salt],80.5,
O=C(O)c1cc(=O)c2c(OCC(O)COc3cccc4oc(C(=O)O)cc(=O)c34)cccc2o1 [Disodium Cromoglycate],100,
O=c1c(O)c(-c2ccccc2)oc2cc(O)cc(O)c12 [Galangin],,82.5
CCN1CCCC1CNC(=O)c1cc(S(N)(=O)=O)ccc1OC (racemic) [(±)-Sulpiride],115,
CC(=O)Oc1ccc(/C=C/C(=O)CC2OC(Oc3cc(OC(C)=O)c4c(c3)O[C@@H](c3ccc(OC(C)=O)cc3)CC4=O)C(OC(C)=O)C(OC(C)=O)C2OC(C)=O)cc1 (some centres undefined),,96.5
COc1cc2oc(-c3ccccc3)cc(=O)c2cc1O,,86.1
C=CCNc1ncnc2c1ncn2[C@@H]1O[C@H](CO)[C@@H](O)[C@H]1O [N-Allyladenosine],,93.5
O=c1cc(-c2cccc(O)c2)oc2c(O)c(O)ccc12,,85.6
C/N=C(/NC#N)NCCSCc1csc(NC(=N)N)n1 [Tiotidine],95.8,
Nc1nc(=O)c2c([nH]1)NCC(CNc1ccc(C(=O)N[C@@H](CCC(=O)O)C(=O)O)cc1)N2C=O (some centres undefined),105,
"CN(C)C(=O)N=NC(=O)N(C)C [N,N,N',N'-Tetramethylazodicarboxamide]",101,
CCN1/C(=C/C(C)=O)Sc2ccc(OC)cc21,106,
Cc1ccc(O)c([C@H](CCN(C(C)C)C(C)C)c2ccccc2)c1,98.4,
Cc1nc(N=Nc2ccc(S(=O)(=O)O)cc2S(=O)(=O)O)c(COP(=O)(O)O)c(C=O)c1O,101,
CCCCC[C@H](CC(=O)NO)C(=O)N[C@H](C(=O)N1CCC[C@H]1CO)C(C)C [Actinonin],105,
CC(=O)OC(C)C[N+](C)(C)C (centres undefined) [Methacholine chloride],120,
CC(=O)OC(C)C[N+](C)(C)C (centres undefined),108,

# Given with tabs: entries from further up.
SMILES	cell viability (compound concentration: 3 uM) [%]	cell viability [1] [%]
Nc1nc(=O)c2c([nH]1)NCC(CNc1ccc(C(=O)N[C@@H](CCC(=O)O)C(=O)O)cc1)N2C=O (some centres undefined)	105	
CN(C)C(=O)N=NC(=O)N(C)C [N,N,N',N'-Tetramethylazodicarboxamide]	101	
CCN1/C(=C/C(C)=O)Sc2ccc(OC)cc21	106	
Cc1ccc(O)c([C@H](CCN(C(C)C)C(C)C)c2ccccc2)c1	98.4	

# (further entries)

SMILES,cell viability (compound concentration: 3 uM) [%],cell viability [1] [%]
CC(=O)OC(C)C[N+](C)(C)C (stereo not drawn) [Acetyl-beta-methylcholine chloride],104,
CCCCOc1ccc(CC(=O)NO)cc1,109,
CCCCOc1ccc(CC(=O)NO)cc1 [Bufexamac],92,
Oc1c(Cl)cc(Cl)cc1Sc1cc(Cl)cc(Cl)c1O,97.2,
NC[C@H]1CC[C@H](C(=O)O)CC1 [Tranexamic acid],112,
NC[C@H]1CC[C@H](C(=O)O)CC1,101,
C=CCc1ccccc1OCC(O)CNC(C)C (centres undefined) [Alprenolol hydrochloride],104.2 ± 0.9,
C=CCc1ccccc1OCC(O)CNC(C)C (centres undefined) [Alprenolol],114,
C=CCc1ccccc1OCC(O)CNC(C)C (centres undefined),96.2,
CN(C)CCC(c1ccccc1)c1ccccn1 (centres undefined) [Pheniramine maleate],104 ± 20,
CN(C)CCC(c1ccccc1)c1ccccn1 (centres undefined),111,
Nc1ccn([C@@H]2O[C@H](CO)[C@@H](O)[C@H]2O)c(=O)n1 [Cytidine],,103
CC(C)CCC[C@@H](C)[C@H]1CC[C@H]2[C@@H]3CC=C4C[C@@H](O)CC[C@]4(C)[C@H]3CC[C@]12C,97.8,
Cc1c(O)cccc1C(=O)N[C@@H](CSc1ccccc1)[C@H](O)CN1C[C@H]2CCCC[C@H]2C[C@H]1C(=O)NC(C)(C)C,89.7,
Cc1c(O)cccc1C(=O)N[C@@H](CSc1ccccc1)[C@H](O)CN1C[C@H]2CCCC[C@H]2C[C@H]1C(=O)NC(C)(C)C [Nelfinavir mesylate],99.7,
CCSc1ccc2c(c1)N(CCCN1CCN(C)CC1)c1ccccc1S2 [Thiethylperazine malate],87.2,
CCOc1ccc2cc(-c3ccccc3Cl)c(=O)oc2c1 [3(2'-Chlorophenyl)-7-ethoxycoumarin],,114
"COC1=C(OC)C(=O)c2ccccc2C1=O [2,3-Dimethoxy-1,4-naphthoquinone]",79.4,
COc1ccc(/C=C2\COc3ccc(C)cc3C2=O)cc1O,109,
CC(CCc1ccc(O)cc1)NCC(O)c1ccc(O)cc1 (centres undefined) [Ractopamine],98.6,
CC(=O)[C@H]1CC[C@H]2[C@@H]3CC=C4C[C@@H](OC(=O)CCC(=O)O)CC[C@]4(C)[C@H]3CC[C@]12C,127,

SMILES,cell viability (compound concentration: 3 uM) [%],cell viability [1] [%]
CCCCC(CC)COC(=O)c1ccccc1O (centres undefined),98.1,
CCN(CCCc1ccccc1)CCCc1ccccc1 [Alverine citrate salt],111,
CCN(CCCc1ccccc1)CCCc1ccccc1,105,
CC(C)(C)C(O)/C=C/c1ccc2c(c1)OCO2 (centres undefined) [Stiripentol],92.6,
CC[C@]1(O)C[C@@H]2CN(CCc3c([nH]c4ccccc34)[C@@](C(=O)OC)(c3cc4c(cc3OC)N(C)[C@H]3[C@@](O)(C(=O)OC)[C@H](OC(C)=O)[C@]5(CC)C=CCN6CC[C@]43[C@@H]65)C2)C1 [Vinblastine],85.1,
CC[C@]1(O)C[C@@H]2CN(CCc3c([nH]c4ccccc34)[C@@](C(=O)OC)(c3cc4c(cc3OC)N(C)[C@H]3[C@@](O)(C(=O)OC)[C@H](OC(C)=O)[C@]5(CC)C=CCN6CC[C@]43[C@@H]65)C2)C1,78.6 ± 10,
CC[C@]1(O)C[C@@H]2CN(CCc3c([nH]c4ccccc34)[C@@](C(=O)OC)(c3cc4c(cc3OC)N(C)[C@H]3[C@@](O)(C(=O)OC)[C@H](OC(C)=O)[C@]5(CC)C=CCN6CC[C@]43[C@@H]65)C2)C1 [Vinblastine sulfate salt],89.9,
CCCCC#Cc1nc(NC)c2ncn([C@@H]3O[C@H](CO)[C@@H](O)[C@H]3O)c2n1,97,
CCN(CC)C(=O)N1CCN(C)CC1 [Diethylcarbamazine citrate],95,
CCN(CC)C(=O)N1CCN(C)CC1,99.6,
O=C(O)c1cc(O)c(O)c(O)c1,107,
Nc1nccc2c1ncn2[C@@H]1O[C@H](CO)[C@@H](O)[C@H]1O [3-deazaadenosine],96.1,
N[C@@H](Cc1ccc(F)cc1)C(=O)O [p-Fluoro-L-phenylalanine],104,
O=P(O)(O)C(O)(Cc1cccnc1)P(=O)(O)O [Risedronic acid],94.4,
O=P(O)(O)C(O)(Cc1cccnc1)P(=O)(O)O,97.8,
CCCC(C(=O)OCCN(CC)CC)(c1ccccc1)c1ccccc1 [SKF-525A hydrochloride],99.9,
CCCC(C(=O)OCCN(CC)CC)(c1ccccc1)c1ccccc1 [Proadifen hydrochloride],114,
CCCC(C(=O)OCCN(CC)CC)(c1ccccc1)c1ccccc1,108,
CCC1=C[C@H]2CN(C1)Cc1c([nH]c3ccccc13)[C@@](C(=O)OC)(c1cc3c(cc1OC)N(C)[C@H]1[C@@](O)(C(=O)OC)[C@H](OC(C)=O)[C@]4(CC)C=CCN5CC[C@]31[C@@H]54)C2,78.2,

# 2 records picked at random from those above, as already listed:
SMILES,cell viability (compound concentration: 3 uM) [%],cell viability [1] [%]
CC[C@]1(O)C[C@@H]2CN(CCc3c([nH]c4ccccc34)[C@@](C(=O)OC)(c3cc4c(cc3OC)N(C)[C@H]3[C@@](O)(C(=O)OC)[C@H](OC(C)=O)[C@]5(CC)C=CCN6CC[C@]43[C@@H]65)C2)C1,78.6 ± 10,
CCN(CCCc1ccccc1)CCCc1ccccc1,105,
